Results: PubChem BioAssay AID248 (DTP/NCI, 2004)
The list is a part of this screen's results and no random one: it gathers tests that were run many times, whatever their T/C, doses with no T/C, and many T/C values between a quarter and a half above the control. Other doses and runs of a compound stand elsewhere. T/C: endpoint of the treated group in % of that of the vehicle group. Some doses have a count of surviving animals in place of a T/C: the source files T/C as zero there, which appears to mark a toxic dose or a test without result, not a measured value. Some survivor counts are full or nearly so, which does not show that the dose was tolerated: survival well below the control is almost never listed, so the zero probably covers shortened survival too. Counts of survivors are from the toxicity check (mostly the fifth day) where no day follows; animals may have died later. Schedule codes are those of the source, read here as Q, the interval in days (D) or hours (H), X, the number of doses. Some schedules carry Z or #; the key to these is not given. Where survival is the endpoint, the PubChem record calls one and a half times the control and up active, and a quarter to a half above the control has no call in these data; cut-offs in other NCI protocols can differ. Some doses were run more than once; the values are given in rising order. Some T/C values are followed by the survivors on the day toxicity was checked, most often the fifth; without a count, all were alive then.

System: L1210 leukemia ip in BDF1 mice, survival T/C
Assay: NCI In Vivo Anticancer Drug Screen. Data for tumor model L1210 Leukemia (intraperitoneal) in B6D2F1 (BDF1) mice
Settings: T/C endpoint: mean survival time, higher T/C = longer survival
[1] = dose: 80.0 mg/kg/injection, schedule: Q01DX Z (ip), vehicle: saline
[2] = dose: 270.0 mg/kg/injection, schedule: Q01DX Z (ip), vehicle: saline

SMILES: Nc1ccc(OC(=O)Oc2ccc(N)cc2)cc1
- T/C (dose: 35.0 mg/kg/injection, schedule: Q01DX Z (ip), vehicle: other): 135 % of control
- survivor count (dose: 50.0 mg/kg/injection, schedule: Q01DX015 (ip), vehicle: clinical formulation): 3 of 6
- T/C (dose: 53.0 mg/kg/injection, schedule: Q01DX Z (ip), vehicle: other): 127 and 135 % of control
- T/C (dose: 60.0 mg/kg/injection, schedule: Q#A X Z (ip), vehicle: saline): 128 % of control
- T/C (dose: 80.0 mg/kg/injection, schedule: Q01DX013 (ip), vehicle: saline): 139 % of control
- T/C (dose: 80.0 mg/kg/injection, schedule: Q01DX Z (ip), vehicle: carboxymethylcellulose (CMC)): 131 % of control
- T/C [1]: 127 % of control
- survivor count [1]: 6 of 6
- T/C (dose: 90.0 mg/kg/injection, schedule: Q#A X Z (ip), vehicle: saline): 143 % of control
- T/C (dose: 100.0 mg/kg/injection, schedule: Q01DX015 (ip), vehicle: other): 128 % of control
- T/C (dose: 100.0 mg/kg/injection, schedule: Q01DX Z (ip), vehicle: saline): 142 % of control
- T/C (dose: 100.0 mg/kg/injection, schedule: Q01DX Z (oral), vehicle: saline): 125 % of control
- survivor count (dose: 100.0 mg/kg/injection, schedule: Q## X024 (ip), vehicle: saline): 9 of 10
- T/C (dose: 100.0 mg/kg/injection, schedule: Q#A X Z (oral), vehicle: saline): 130 % of control
- T/C (dose: 120.0 mg/kg/injection, schedule: Q01DX014 (sc), vehicle: saline): 136 % of control
- T/C (dose: 120.0 mg/kg/injection, schedule: Q01DX Z (ip), vehicle: other): 137 % of control
- T/C (dose: 150.0 mg/kg/injection, schedule: Q01DX017 (ip), vehicle: other): 136 % of control
- T/C (dose: 178.0 mg/kg/injection, schedule: Q01DX009 (ip), vehicle: saline): 142 % of control
- T/C (dose: 180.0 mg/kg/injection, schedule: Q01DX014 (oral), vehicle: saline): 128 % of control
- T/C (dose: 180.0 mg/kg/injection, schedule: Q01DX014 (sc), vehicle: saline): 132 % of control
- T/C (dose: 180.0 mg/kg/injection, schedule: Q01DX Z (ip), vehicle: other): 133 % of control
- T/C (dose: 180.0 mg/kg/injection, schedule: Q01DX Z (ip), vehicle: saline): 131 and 132 % of control
- T/C (dose: 200.0 mg/kg/injection, schedule: Q01DX009 (ip), vehicle: saline): 125 % of control
- T/C (dose: 200.0 mg/kg/injection, schedule: Q01DX009 (oral), vehicle: saline): 129 % of control [8 of 10 alive]
- T/C (dose: 200.0 mg/kg/injection, schedule: Q01DX Z (im), vehicle: saline): 146 % of control
- T/C (dose: 200.0 mg/kg/injection, schedule: Q01DX Z (sc), vehicle: saline): 134 % of control
- T/C (dose: 212.0 mg/kg/injection, schedule: Q01DX014 (oral), vehicle: saline): 126 % of control
- T/C (dose: 212.0 mg/kg/injection, schedule: Q01DX016 (oral), vehicle: saline): 145 % of control
- survivor count (dose: 212.0 mg/kg/injection, schedule: Q01DX Z (oral), vehicle: saline): 3 of 6
- T/C (dose: 267.0 mg/kg/injection, schedule: Q01DX009 (ip), vehicle: saline): 143 % of control
- T/C (dose: 267.0 mg/kg/injection, schedule: Q01DX009 (oral), vehicle: saline): 129 % of control
- T/C (dose: 270.0 mg/kg/injection, schedule: Q01DX Z (ip), vehicle: other): 135 % of control
- T/C [2]: 127 % of control
- survivor count [2]: 3 of 6
- T/C (dose: 270.0 mg/kg/injection, schedule: Q01DX Z (sc), vehicle: saline): 134 % of control
- T/C (dose: 299.0 mg/kg/injection, schedule: Q01DX Z (ip), vehicle: carboxymethylcellulose (CMC)): 128 % of control [5 of 6 alive]
- T/C (dose: 300.0 mg/kg/injection, schedule: Q01DX009 (ip), vehicle: other): 141 % of control
- T/C (dose: 300.0 mg/kg/injection, schedule: Q01DX017 (ip), vehicle: other): 142 % of control
- T/C (dose: 300.0 mg/kg/injection, schedule: Q01DX Z (ip), vehicle: carboxymethylcellulose (CMC)): 131 % of control
- T/C (dose: 300.0 mg/kg/injection, schedule: Q#A X018 (ip), vehicle: other): 131 % of control
- survivor count (dose: 320.0 mg/kg/injection, schedule: Q01DX Z (iv), vehicle: saline): 0 of 6
- T/C (dose: 320.0 mg/kg/injection, schedule: Q01DX Z (oral), vehicle: saline): 141 % of control [4 of 6 alive]
- T/C (dose: 400.0 mg/kg/injection, schedule: Q01DX005 (ip), vehicle: saline): 130 % of control [8 of 10 alive]
- T/C (dose: 400.0 mg/kg/injection, schedule: Q01DX009 (ip), vehicle: saline, evaluated on day 30): 129 % of control [9 of 10 alive]
- T/C (dose: 400.0 mg/kg/injection, schedule: Q01DX009 (ip), vehicle: saline, run until all animals had died): 135 % of control [9 of 10 alive]
- survivor count (dose: 400.0 mg/kg/injection, schedule: Q01DX015 (ip), vehicle: clinical formulation): 5 of 6
- survivor count (dose: 400.0 mg/kg/injection, schedule: Q01DX015 (ip), vehicle: other): 2 of 6
- T/C (dose: 400.0 mg/kg/injection, schedule: Q01DX Z (im), vehicle: saline): 138 % of control
- survivor count (dose: 400.0 mg/kg/injection, schedule: Q01DX Z (ip), vehicle: saline): 3 of 6
- survivor count (dose: 400.0 mg/kg/injection, schedule: Q01DX Z (oral), vehicle: saline): 6 of 6
- T/C (dose: 400.0 mg/kg/injection, schedule: Q01DX Z (sc), vehicle: saline): 146 % of control
- T/C (dose: 400.0 mg/kg/injection, schedule: Q## X024 (ip), vehicle: saline): 126 % of control
- T/C (dose: 400.0 mg/kg/injection, schedule: Q#A X Z (oral), vehicle: saline): 136 % of control [4 of 6 alive]
- survivor count (dose: 405.0 mg/kg/injection, schedule: Q01DX Z (ip), vehicle: saline): 2 of 6
- T/C (dose: 480.0 mg/kg/injection, schedule: Q01DX Z (oral), vehicle: saline): 148 % of control
- T/C (dose: 500.0 mg/kg/injection, schedule: Q01DX001 (oral), vehicle: saline): 130 % of control [5 of 6 alive]
- survivor count (dose: 600.0 mg/kg/injection, schedule: Q01DX001 (ip), vehicle: other): 5 of 8
- survivor count (dose: 600.0 mg/kg/injection, schedule: Q01DX009 (ip), vehicle: saline): 4 of 10
- T/C (dose: 600.0 mg/kg/injection, schedule: Q01DX009 (oral), vehicle: saline): 131 % of control
- survivor count (dose: 606.0 mg/kg/injection, schedule: Q01DX Z (sc), vehicle: saline): 5 of 6
- survivor count (dose: 640.0 mg/kg/injection, schedule: Q01DX Z (iv), vehicle: saline): 0 of 6
- survivor count (dose: 800.0 mg/kg/injection, schedule: Q01DX001 (ip), vehicle: saline): 3 of 10
- survivor count (dose: 800.0 mg/kg/injection, schedule: Q01DX005 (oral), vehicle: saline): 2 of 10
- survivor count (dose: 800.0 mg/kg/injection, schedule: Q01DX Z (im), vehicle: saline): 1 of 6
- survivor count (dose: 800.0 mg/kg/injection, schedule: Q01DX Z (oral), vehicle: saline): 3 of 6
- survivor count (dose: 800.0 mg/kg/injection, schedule: Q01DX Z (sc), vehicle: saline): 1 of 6
- survivor count (dose: 800.0 mg/kg/injection, schedule: Q## X003 (ip), vehicle: saline): 4 of 10
- T/C (dose: 800.0 mg/kg/injection, schedule: Q## X008 (ip), vehicle: saline): 137 % of control
- survivor count (dose: 800.0 mg/kg/injection, schedule: Q## X024 (oral), vehicle: saline): 4 of 9
- survivor count (dose: 800.0 mg/kg/injection, schedule: Q#A X Z (oral), vehicle: saline): 3 of 6
- survivor count (dose: 810.0 mg/kg/injection, schedule: Q03DX Z (ip), vehicle: saline): 1 of 6
- survivor count (dose: 840.0 mg/kg/injection, schedule: Q07DX Z (ip), vehicle: saline): 1 of 6
- T/C (dose: 900.0 mg/kg/injection, schedule: Q01DX009 (oral), vehicle: saline): 142 % of control
- T/C (dose: 900.0 mg/kg/injection, schedule: Q## X024 (oral), vehicle: saline): 147 % of control
- survivor count (dose: 1000.0 mg/kg/injection, schedule: Q01DX001 (oral), vehicle: saline): 3 of 6
- survivor count (dose: 1080.0 mg/kg/injection, schedule: Q01DX Z (oral), vehicle: saline): 1 of 6
- survivor count (dose: 1200.0 mg/kg/injection, schedule: Q01DX001 (ip), vehicle: other): 0 of 8
- survivor count (dose: 1260.0 mg/kg/injection, schedule: Q07DX Z (ip), vehicle: saline): 0 of 6
- survivor count (dose: 1600.0 mg/kg/injection, schedule: Q01DX008 (oral), vehicle: saline): 2 of 10
- survivor count (dose: 1600.0 mg/kg/injection, schedule: Q01DX Z (im), vehicle: saline): 1 of 6
- survivor count (dose: 1600.0 mg/kg/injection, schedule: Q01DX Z (oral), vehicle: saline): 0 of 6
- survivor count (dose: 1600.0 mg/kg/injection, schedule: Q01DX Z (sc), vehicle: saline): 0 of 6
- survivor count (dose: 1600.0 mg/kg/injection, schedule: Q## X024 (oral), vehicle: saline): 3 of 8
- survivor count (dose: 1890.0 mg/kg/injection, schedule: Q07DX Z (ip), vehicle: saline): 0 of 6
- survivor count (dose: 2000.0 mg/kg/injection, schedule: Q01DX001 (oral), vehicle: saline): 2 of 6
- survivor count (dose: 2000.0 mg/kg/injection, schedule: Q03DX006 (oral), vehicle: saline): 3 of 6
- survivor count (dose: 2000.0 mg/kg/injection, schedule: Q07DX003 (oral), vehicle: saline): 1 of 6
